Source: patent publication US11632963B2, “Tuber storage” (Arysta Lifescience Benelux Sprl, priority 2014, dated 2023)

System: potatoes
Assay: Taste test of treated potatoes (PCA and CRA-W panels)
Set-up: species or system Solanum tuberosum

## C=C(C)[C@H]1CC=C(C)CC1 [limonene]
After limonene treatment of Example 2
  influence on the taste and smell of the potatoes compared to mint oil: did not have a negative influence
Both taste tests, FIG. 2
  taste test compared to the untreated potatoes (high values equals the best taste): improves the taste
